Data from PubChem BioAssay AID2685 (National Center for Advancing Translational Sciences (NCATS), 2010).
Some of the results follow. The main result of the screen is listed elsewhere. These columns were measured beside it and carry no call. Compounds called inactive in the main read-out are mostly missing here. The note in brackets gives the kind of curve behind each potency; many fits are weak.

Experiment: qHTS Assay for Lipid Storage Modulators in Drosophila S3 Cells;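 for cell number change: cells counted by Cell Tracker Red CMTPX staining in the red channel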
Details: BODIPY lipid droplet fluorescence, 18-24 h; for cell number change: measured here: cell count max response, cells fed with added oleic acid
In short: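 Drosophila S3 cells loaded with oleic acid (400 uM, as added) and compounds at several concentrations; lipid droplets imaged by 488-nm laser-scanning cytometry, 500–530 nm intensity and object ratio to cell channel. Percent activity normalized to 20 uM Triacsin C.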

[1] = measured here: lipid fluorescence (Fed channel) AC50, cells fed with added oleic acid
[2] = measured here: cell number channel AC50, cells fed with added oleic acid

SMILES	cell number change	AC50 [1]	AC50 [2]
Cc1snc2sc(C(=O)c3ccc(F)cc3)c(N)c12	11.2%	2.91 µM [rising, full curve, poor fit]	
COc1cc(OC)cc(C(=O)N[C@H](C(=O)Nc2nc3c(s2)CCCC3)C(C)C)c1	4.63%		
CCOC(=O)C1=C(C)NC(=O)NC1c1ccc(-c2ccc(F)cc2)o1 (stereo unspecified)	6.56%		
COc1ccc(NC(=O)NC2(C(=O)N3CCN4CCCC4C3)CCCCC2)cc1 (stereo unspecified)	19.8%	6.51 µM [rising, single point]	0.00411 µM [rising, full curve, poor fit]
CC(C)CC(=O)Nc1ccc2nn(-c3ccccc3)nc2c1	23.3%	18.4 µM [rising, single point]	0.00461 µM [falling, full curve, poor fit]
COc1ccc(C(=O)OCC(=O)NCC2CCCO2)cc1 (stereo unspecified)	-6.38%		6.51 µM [rising, single point]
CC(=O)NC12CC3CC(CC(CC(=O)O)(C3)C1)C2	-18.2%	1.64 µM [falling, partial curve, poor fit]	
CCCc1ccccc1OCCNC(C)=O	4.44%		0.58 µM [falling, full curve]
CCCCOc1ccc(-c2n[nH]c(=S)n2Cc2ccccc2)cc1	-54.7%	23.1 µM [falling, partial curve]	18.4 µM [falling, partial curve]
CN(C)C(=O)c1cc2cc([N+](=O)[O-])ccc2s1	-21.8%	2.06 µM [falling, partial curve]	
COC(CNC(=O)C1CC(=O)N(CCc2ccc(C)cc2)C1)OC (stereo unspecified)	20.6%	29.1 µM [rising, single point]	
CC(NC(=O)C(C)N1C(=O)C2C3CC(C(Br)C3Br)C2C1=O)c1ccccc1 (stereo unspecified)	-82.7%		2.91 µM [falling, full curve]
COc1ccc(Cl)cc1NC(=O)CN(C)C(=O)c1ccc(N2CCCCC2)c([N+](=O)[O-])c1	-28.8%	18.4 µM [falling, single point]	
CC(NC(=O)c1cccc(F)c1)C(c1cccs1)N1CCN(C)CC1 (stereo unspecified)	148%	6.51 µM [falling, single point]	6.51 µM [falling, single point]
Cc1ccc(-c2nc(CSCC(=O)N3CCN(c4ccccn4)CC3)c(C)o2)cc1	22%	2.06 µM [rising, partial curve]	2.06 µM [rising, partial curve]
Cc1cc(C)c2nc(-c3ccccn3)cc(C(=O)NCc3ccco3)c2c1	-35.5%	0.517 µM [rising, full curve]	13 µM [falling, partial curve, poor fit]
CCOC(=O)NC1(C(F)(F)F)NC(=O)N(c2cccc(C(F)(F)F)c2)C1=O (stereo unspecified)	13.8%	25.9 µM [rising, single point]	
C=CC[n+]1c(-c2ccc(Cl)cc2Cl)csc1Nc1c(C)n(C)n(-c2ccccc2)c1=O	-6.99%		
COc1ccc(CN(C)C2CCCCC2)cc1	1.18%	29.1 µM [falling, single point]	
CCC(=O)N(C)CCc1cc2c(c(OC)c1/C=N/NS(=O)(=O)c1ccc(C)cc1)OCO2	-3.63%	0.291 µM [rising, partial curve, poor fit]	

Looked up above:
`CCC(=O)N(C)CCc1cc2c(c(OC)c1/C=N/NS(=O)(=O)c1ccc(C)cc1)OCO2` | cell number change: -3.63%
`COc1ccc(NC(=O)NC2(C(=O)N3CCN4CCCC4C3)CCCCC2)cc1` (stereo unspecified) | AC50 [2]: 0.00411 µM [rising, full curve, poor fit]
`CCCc1ccccc1OCCNC(C)=O` | AC50 [2]: 0.58 µM [falling, full curve]
`CC(NC(=O)c1cccc(F)c1)C(c1cccs1)N1CCN(C)CC1` (stereo unspecified) | AC50 [1]: 6.51 µM [falling, single point]
`C=CC[n+]1c(-c2ccc(Cl)cc2Cl)csc1Nc1c(C)n(C)n(-c2ccccc2)c1=O` | cell number change: -6.99%

Additional records follow:

SMILES	cell number change	AC50 [1]	AC50 [2]
COCCOCC(O)CN1CCN(c2ccc(C)cc2)CC1 (stereo unspecified)	-1.21%		
CC(C)CCNC(=O)NC(=O)COC(=O)/C=C/c1cccc([N+](=O)[O-])c1			0.082 µM [rising, partial curve, poor fit]
CC(C)CCN1CCN(Cc2ccc(C#CCCO)cc2)CC1CCO (stereo unspecified)	-9.41%	29.1 µM [falling, single point]	
CN(CC(=O)Nc1ccc(F)c(F)c1F)C(=O)CN1C(=O)C2CCCCC2C1=O (stereo unspecified)	12%		
COCCN(C(=O)COC(=O)Cc1coc2cc(C)ccc12)c1c(N)n(Cc2ccccc2)c(=O)[nH]c1=O		23.1 µM [rising, partial curve]	
CCn1c(NC(=O)C(C)C)c2ccccc2nc1=O	-20.4%	10 µM [falling, partial curve, poor fit]	0.631 µM [falling, full curve, poor fit]
CCOC(=O)N/N=C/c1ccc(F)cc1F	81.7%	29.1 µM [rising, single point]	25.9 µM [rising, single point]
Cn1cc(C(=O)c2ccc(Cl)cc2Cl)cc1C(=O)N/N=C(\N)COc1ccc(F)cc1	37.9%		1.3 µM [rising, full curve]
COc1ccc(C)cc1NS(=O)(=O)c1ccc(Cl)nc1	9.52%	29.1 µM [rising, single point]	
O=C(CNS(=O)(=O)c1ccccc1)Nc1cccc([N+](=O)[O-])c1	90.5%	6.51 µM [falling, single point]	6.51 µM [falling, single point]
O=C(Nc1nnc(SCCN2CCOCC2)s1)C1CC(=O)N(c2ccc(F)cc2)C1 (stereo unspecified)	18.1%	29.1 µM [rising, single point]	2.91 µM [rising, partial curve]
O=C(CCn1c(=O)[nH]c2ccsc2c1=O)NCc1ccc(F)cc1	-25.4%		
CN(CC(=O)NC(c1ccccc1)c1ccccc1)Cc1nc2ccccc2c(=O)[nH]1	2.38%	1.03 µM [rising, full curve, poor fit]	
CC1CCc2c(C(=O)NCc3cccnc3)csc2C1 (stereo unspecified)	-1.91%	32.6 µM [falling, single point]	
CC(C)C(c1nnnn1CC1CCCO1)N1CCN(C2CCCC2)CC1 (stereo unspecified)	-2.58%	7.31 µM [falling, partial curve, poor fit]	
CCC(C)COC(=O)C(C#N)c1nc2ccccc2nc1N1CCCCC1 (stereo unspecified)	0.419%	0.00461 µM [rising, full curve, poor fit]	
CC(=O)Nc1ccc2oc(C)nc2c1		0.82 µM [falling, single point]	
CCOc1ccc(/C=N/NC(=O)COc2ccccc2-c2ccccc2)cc1	-16.1%	29.1 µM [falling, single point]	
O=C(O)c1cc(S(=O)(=O)Nc2ccc3oc(=O)sc3c2)ccc1O	1.78%	36.6 µM [falling, partial curve, poor fit]	
Cc1ccc(-c2cc(C(F)F)n3ncc(C(=O)N4CCCCC4c4cccnc4)c3n2)cc1 (stereo unspecified)	44.9%	29.1 µM [rising, single point]	29.1 µM [rising, single point]

SMILES	cell number change	AC50 [1]	AC50 [2]
COc1cc([C@H]2c3c(cc(OC)c(O)c3OC)C[C@@H](CO)[C@@H]2CO[C@@H]2O[C@H](CO)[C@@H](O)[C@H](O)[C@H]2O)cc(OC)c1O	-28.2%	0.206 µM [falling, full curve, poor fit]	
Cc1nc(SCC(N)=O)[nH]c(=O)c1Cc1ccc(OC(C)C)cc1	-26.8%		
CCOC(=O)CSc1nc(N)nc(C)c1Br	0.23%		
Cc1[nH]c(=O)[nH]c(=O)c1S(=O)(=O)N1CCCC(C(=O)NCc2ccco2)C1 (stereo unspecified)	-48.4%	5.17 µM [falling, full curve]	3.26 µM [falling, full curve, poor fit]
O=C(O)CCN1C(=O)C2C3c4ccccc4C(c4ccccc43)C2C1=O (stereo unspecified)	8.15%		
O=C(O)c1ccccc1NS(=O)(=O)c1cccc(-n2sc3ccccc3c2=O)c1	12.6%		
Cc1[nH]n(-c2ccccc2)c(=O)c1C1(C(F)(F)F)C(=O)N(c2ccccc2)C2=C1C(=O)CC(C)(C)C2 (stereo unspecified)	-62.5%		3.26 µM [falling, partial curve, poor fit]
N#C/C(=C/c1ccc(N2CCCCC2)o1)c1cccc(F)c1	10.1%		
O=c1nc2ccccc2c(NS(=O)(=O)c2ccccc2)n1-c1ccccc1	-9.48%		
Cc1ccc(C(=O)N/N=C\c2cc3c(cc2Br)OCO3)cn1	-31.7%		9.2 µM [falling, partial curve]
O=C(c1ccco1)N(Cc1cccc(F)c1)C1CCS(=O)(=O)C1 (stereo unspecified)	0.597%		
O=C(COc1ccc([N+](=O)[O-])cc1)NNC(=O)Nc1ccc([N+](=O)[O-])cc1	1.62%	0.398 µM [rising, partial curve, poor fit]	
COc1cc(CC(=O)Nc2nccs2)cc(OC)c1OC	-20.7%		
Cc1ccc(NC(=O)c2cnc(SCC(=O)NCC3CCCO3)n(C)c2=O)cc1C (stereo unspecified)	-37.9%	25.9 µM [falling, single point]	29.1 µM [falling, single point]
COc1cc(C(=O)Nc2ccc(NC(=O)c3ccccc3Cl)nc2)cc(OC)c1OC	-1.32%		0.206 µM [rising, full curve, poor fit]
CC1CC(C)CN(CCCNC(=O)c2ccc(CNS(=O)(=O)c3ccc(F)cc3)cc2)C1 (stereo unspecified)	0.295%	29.1 µM [rising, single point]	
C=CCSC1=C(C#N)C2(CCCCC2)C(C#N)C(=O)N1 (stereo unspecified)	17.8%	0.517 µM [rising, partial curve]	
CCOc1cc(N2CCOCC2)c(OCC)cc1NC(=O)C(NC(=O)c1ccco1)C(C)C (stereo unspecified)	63.9%	18.4 µM [rising, partial curve]	32.6 µM [rising, single point]
COc1ccc(N2C(=O)C3CCCN3C2c2ccccc2)cc1 (stereo unspecified)	7.55%		
COC1CCCCC1NS(=O)(=O)c1ccc(Cl)cc1 (stereo unspecified)	16%	0.013 µM [falling, full curve, poor fit]	
